Data on 7 molecules can be found in PMC3278457.

Amino acid sequences for entries named in this document (tags omitted). A change or cut given only in a name is not applied to a line headed by its entry. Chains listed by the source or under a name are the forms on record and can include a tag or linker. Residues count along the entry.
UniProt O35274: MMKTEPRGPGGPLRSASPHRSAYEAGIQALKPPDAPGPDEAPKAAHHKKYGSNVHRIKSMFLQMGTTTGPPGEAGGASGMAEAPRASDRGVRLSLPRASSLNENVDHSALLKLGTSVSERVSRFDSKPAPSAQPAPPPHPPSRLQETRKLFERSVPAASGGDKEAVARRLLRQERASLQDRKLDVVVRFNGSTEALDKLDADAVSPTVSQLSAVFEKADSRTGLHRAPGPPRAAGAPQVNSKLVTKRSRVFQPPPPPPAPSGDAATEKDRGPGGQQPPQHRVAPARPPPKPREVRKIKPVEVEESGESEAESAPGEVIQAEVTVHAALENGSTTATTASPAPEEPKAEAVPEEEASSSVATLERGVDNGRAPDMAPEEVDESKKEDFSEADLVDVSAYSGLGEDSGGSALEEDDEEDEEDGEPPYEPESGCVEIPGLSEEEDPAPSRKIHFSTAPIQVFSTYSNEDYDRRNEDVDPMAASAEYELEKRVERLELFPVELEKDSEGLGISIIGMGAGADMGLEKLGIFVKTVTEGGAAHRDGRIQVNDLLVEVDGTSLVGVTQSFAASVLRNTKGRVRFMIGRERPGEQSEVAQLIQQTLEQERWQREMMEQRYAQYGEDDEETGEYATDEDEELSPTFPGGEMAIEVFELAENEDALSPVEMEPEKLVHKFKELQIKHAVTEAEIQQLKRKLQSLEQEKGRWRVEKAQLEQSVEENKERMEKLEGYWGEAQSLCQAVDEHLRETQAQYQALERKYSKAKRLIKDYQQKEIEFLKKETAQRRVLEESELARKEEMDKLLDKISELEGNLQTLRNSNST
GSTSpN1 (GST-spinophilin residues 1–154): residues 1-154 of O35274
GSTSpN2 (GST-spinophilin residues 151–300): residues 151-300 of O35274
GSTSpC (GST-spinophilin residues 446–817): residues 446-817 of O35274
GSTSpC1 (GST-spinophilin residues 665–817), WT: residues 665-817 of O35274
GSTSpC1 L688P (O35274, form named): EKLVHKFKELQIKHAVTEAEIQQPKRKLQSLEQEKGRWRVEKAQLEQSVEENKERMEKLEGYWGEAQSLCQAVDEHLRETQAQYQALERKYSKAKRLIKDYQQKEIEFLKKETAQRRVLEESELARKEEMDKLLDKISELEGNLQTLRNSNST
GSTSpC1 L797P (O35274, form named): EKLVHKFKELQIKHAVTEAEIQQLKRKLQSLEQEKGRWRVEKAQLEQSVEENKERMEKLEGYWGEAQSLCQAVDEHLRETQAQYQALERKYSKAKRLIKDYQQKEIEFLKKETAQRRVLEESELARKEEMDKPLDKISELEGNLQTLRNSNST
GSTSpC1 L709P (O35274, form named): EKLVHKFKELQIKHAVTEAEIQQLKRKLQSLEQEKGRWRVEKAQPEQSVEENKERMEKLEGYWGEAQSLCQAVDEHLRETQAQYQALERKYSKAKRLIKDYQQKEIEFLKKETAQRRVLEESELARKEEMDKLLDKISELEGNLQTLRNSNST
GSTSpC1 L751P (O35274, form named): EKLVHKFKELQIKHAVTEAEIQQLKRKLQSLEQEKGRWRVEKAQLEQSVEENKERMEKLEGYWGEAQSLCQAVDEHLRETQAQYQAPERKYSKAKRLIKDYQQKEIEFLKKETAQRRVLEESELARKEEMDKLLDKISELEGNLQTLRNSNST
UniProt Q6R891: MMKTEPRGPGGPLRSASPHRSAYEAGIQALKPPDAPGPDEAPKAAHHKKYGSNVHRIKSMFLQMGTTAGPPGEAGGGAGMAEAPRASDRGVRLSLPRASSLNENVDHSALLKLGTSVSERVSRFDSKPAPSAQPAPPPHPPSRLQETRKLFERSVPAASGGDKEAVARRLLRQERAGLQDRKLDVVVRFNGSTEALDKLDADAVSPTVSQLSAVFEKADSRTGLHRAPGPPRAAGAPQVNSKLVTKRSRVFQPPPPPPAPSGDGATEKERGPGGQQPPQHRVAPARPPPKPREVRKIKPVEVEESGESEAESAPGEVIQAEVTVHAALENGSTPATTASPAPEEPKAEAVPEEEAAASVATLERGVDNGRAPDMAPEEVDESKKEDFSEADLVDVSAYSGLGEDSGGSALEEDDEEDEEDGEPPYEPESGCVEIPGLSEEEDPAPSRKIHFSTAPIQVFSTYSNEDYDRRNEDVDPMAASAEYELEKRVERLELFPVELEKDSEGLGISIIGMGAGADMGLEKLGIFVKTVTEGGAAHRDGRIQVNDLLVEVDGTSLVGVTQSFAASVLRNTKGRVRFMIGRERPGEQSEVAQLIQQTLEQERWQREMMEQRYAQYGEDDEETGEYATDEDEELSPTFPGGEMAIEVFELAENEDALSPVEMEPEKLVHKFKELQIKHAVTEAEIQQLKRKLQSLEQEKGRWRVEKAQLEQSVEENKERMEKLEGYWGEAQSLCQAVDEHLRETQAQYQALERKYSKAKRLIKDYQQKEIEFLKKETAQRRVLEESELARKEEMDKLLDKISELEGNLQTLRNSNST
UniProt P28652: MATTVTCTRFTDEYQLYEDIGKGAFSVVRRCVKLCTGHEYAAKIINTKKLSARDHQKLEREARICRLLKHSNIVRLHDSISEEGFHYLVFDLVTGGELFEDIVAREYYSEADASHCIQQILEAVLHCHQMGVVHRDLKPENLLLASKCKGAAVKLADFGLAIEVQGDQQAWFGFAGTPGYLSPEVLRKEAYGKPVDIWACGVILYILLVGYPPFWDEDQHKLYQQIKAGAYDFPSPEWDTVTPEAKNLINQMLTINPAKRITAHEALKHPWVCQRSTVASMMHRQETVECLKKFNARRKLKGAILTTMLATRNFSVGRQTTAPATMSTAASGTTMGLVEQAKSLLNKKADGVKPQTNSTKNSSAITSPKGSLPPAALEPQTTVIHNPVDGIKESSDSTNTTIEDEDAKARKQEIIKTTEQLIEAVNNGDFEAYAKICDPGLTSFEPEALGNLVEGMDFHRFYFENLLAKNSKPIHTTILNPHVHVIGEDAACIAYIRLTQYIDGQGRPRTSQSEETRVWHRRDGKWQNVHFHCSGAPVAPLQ
UniProt Q80TE7: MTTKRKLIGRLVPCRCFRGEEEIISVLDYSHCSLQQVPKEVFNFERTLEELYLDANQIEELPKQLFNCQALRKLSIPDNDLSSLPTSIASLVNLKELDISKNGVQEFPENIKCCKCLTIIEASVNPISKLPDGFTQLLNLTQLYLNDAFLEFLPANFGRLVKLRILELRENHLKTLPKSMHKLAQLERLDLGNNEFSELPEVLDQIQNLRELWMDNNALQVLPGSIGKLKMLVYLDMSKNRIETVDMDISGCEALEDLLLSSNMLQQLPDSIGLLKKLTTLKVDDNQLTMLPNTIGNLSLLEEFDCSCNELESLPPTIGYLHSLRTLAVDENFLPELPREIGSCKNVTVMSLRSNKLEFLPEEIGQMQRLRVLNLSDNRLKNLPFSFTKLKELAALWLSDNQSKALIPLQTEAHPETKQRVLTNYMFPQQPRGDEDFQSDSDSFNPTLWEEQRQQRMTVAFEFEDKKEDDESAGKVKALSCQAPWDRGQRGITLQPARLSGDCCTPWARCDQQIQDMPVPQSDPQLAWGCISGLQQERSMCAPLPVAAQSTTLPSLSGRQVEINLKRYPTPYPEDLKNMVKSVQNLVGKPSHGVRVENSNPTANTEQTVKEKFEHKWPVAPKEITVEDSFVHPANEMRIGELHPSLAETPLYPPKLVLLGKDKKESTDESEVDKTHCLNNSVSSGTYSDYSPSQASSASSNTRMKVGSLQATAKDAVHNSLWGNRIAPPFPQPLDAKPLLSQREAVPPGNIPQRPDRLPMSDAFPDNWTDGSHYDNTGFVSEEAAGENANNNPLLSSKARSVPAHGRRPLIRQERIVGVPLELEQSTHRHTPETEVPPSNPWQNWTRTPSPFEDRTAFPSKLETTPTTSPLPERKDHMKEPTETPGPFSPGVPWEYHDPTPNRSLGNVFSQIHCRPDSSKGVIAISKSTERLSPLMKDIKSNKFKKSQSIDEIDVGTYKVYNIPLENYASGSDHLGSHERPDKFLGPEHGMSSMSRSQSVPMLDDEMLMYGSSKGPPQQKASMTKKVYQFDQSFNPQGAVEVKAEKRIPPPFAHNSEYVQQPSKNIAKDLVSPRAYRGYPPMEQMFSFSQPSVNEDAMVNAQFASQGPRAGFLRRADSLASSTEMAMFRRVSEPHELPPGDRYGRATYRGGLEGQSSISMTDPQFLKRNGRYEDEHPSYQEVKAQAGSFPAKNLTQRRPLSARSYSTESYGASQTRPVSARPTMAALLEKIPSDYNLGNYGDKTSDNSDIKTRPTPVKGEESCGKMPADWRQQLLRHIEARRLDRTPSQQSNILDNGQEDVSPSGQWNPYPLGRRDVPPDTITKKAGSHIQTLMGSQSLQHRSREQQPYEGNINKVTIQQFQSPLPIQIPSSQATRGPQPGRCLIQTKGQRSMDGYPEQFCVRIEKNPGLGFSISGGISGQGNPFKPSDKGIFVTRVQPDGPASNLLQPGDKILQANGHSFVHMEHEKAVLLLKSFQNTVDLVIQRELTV
UniProt Q99104: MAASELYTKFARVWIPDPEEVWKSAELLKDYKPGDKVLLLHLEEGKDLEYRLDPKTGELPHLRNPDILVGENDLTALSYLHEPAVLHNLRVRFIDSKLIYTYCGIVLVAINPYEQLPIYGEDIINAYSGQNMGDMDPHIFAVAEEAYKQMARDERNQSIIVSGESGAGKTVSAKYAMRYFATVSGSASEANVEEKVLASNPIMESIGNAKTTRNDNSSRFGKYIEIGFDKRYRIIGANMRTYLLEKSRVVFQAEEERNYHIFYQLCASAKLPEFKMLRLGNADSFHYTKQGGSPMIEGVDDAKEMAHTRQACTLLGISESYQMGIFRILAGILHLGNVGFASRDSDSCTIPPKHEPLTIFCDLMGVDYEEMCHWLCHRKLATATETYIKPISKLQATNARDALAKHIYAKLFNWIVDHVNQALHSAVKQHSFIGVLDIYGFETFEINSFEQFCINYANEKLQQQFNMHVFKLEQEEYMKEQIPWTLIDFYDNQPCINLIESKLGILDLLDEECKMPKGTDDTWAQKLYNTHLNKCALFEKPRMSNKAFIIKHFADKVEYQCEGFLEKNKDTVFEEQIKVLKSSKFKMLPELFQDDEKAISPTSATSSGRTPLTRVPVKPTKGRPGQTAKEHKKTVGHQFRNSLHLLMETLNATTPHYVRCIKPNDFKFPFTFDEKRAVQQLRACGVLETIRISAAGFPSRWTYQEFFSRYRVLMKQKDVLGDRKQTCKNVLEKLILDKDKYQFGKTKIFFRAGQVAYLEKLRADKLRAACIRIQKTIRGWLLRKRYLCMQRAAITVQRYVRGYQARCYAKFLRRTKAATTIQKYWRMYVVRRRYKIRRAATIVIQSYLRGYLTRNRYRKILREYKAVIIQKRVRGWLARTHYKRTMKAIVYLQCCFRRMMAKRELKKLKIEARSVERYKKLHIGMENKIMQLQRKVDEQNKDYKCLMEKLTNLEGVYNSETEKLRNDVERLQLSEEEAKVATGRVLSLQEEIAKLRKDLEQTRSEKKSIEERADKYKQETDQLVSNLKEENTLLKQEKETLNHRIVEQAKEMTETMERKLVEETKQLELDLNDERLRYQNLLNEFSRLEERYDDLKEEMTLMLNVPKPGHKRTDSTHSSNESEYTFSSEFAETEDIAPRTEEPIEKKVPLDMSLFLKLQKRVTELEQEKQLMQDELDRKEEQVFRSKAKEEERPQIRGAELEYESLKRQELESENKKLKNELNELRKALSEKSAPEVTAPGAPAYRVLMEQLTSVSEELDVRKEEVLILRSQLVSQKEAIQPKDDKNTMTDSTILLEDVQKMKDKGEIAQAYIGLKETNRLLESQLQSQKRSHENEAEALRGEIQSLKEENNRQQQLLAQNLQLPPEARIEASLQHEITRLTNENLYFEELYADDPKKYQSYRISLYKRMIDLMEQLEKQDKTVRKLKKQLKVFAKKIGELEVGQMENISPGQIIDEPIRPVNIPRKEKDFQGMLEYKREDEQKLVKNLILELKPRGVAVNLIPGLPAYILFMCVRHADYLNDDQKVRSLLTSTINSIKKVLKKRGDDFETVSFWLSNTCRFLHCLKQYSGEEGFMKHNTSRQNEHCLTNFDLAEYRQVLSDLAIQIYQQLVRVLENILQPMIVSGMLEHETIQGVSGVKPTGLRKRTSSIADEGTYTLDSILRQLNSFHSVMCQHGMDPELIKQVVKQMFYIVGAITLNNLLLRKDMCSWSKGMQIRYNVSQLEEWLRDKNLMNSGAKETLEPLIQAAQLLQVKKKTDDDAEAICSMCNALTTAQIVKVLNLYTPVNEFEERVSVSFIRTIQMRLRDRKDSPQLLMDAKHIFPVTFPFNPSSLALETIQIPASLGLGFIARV

Assay [1] deals with GSTSpN2 (GST-spinophilin residues 151–300) (UniProt O35274). The experiment in a line: pull-down; GST constructs (10 µg) incubated with 350–500 µl of mouse striatal (Fig. 9A: whole forebrain) Triton-soluble fraction, WT or T286A-KI, PND21 or adult; 50 mM Tris-HCl pH 7.5, 200 mM NaCl, 0.5% Triton X-100; glutathione agarose overnight; immunoblot; only the target purified. On the technique in general: A western blot detects proteins with antibodies after separation by electrophoresis.

Assay [2] deals with GSTSpC1 (GST-spinophilin residues 665–817), WT (UniProt O35274). The assay is described as above.
A further assay deals with GSTSpC1 L688P (UniProt O35274). Described as above.
The target in a further assay is GSTSpC1 L797P (UniProt O35274). Described as above.
Assay [3] has as its target spinophilin, endogenous in mouse striatal TSF (mouse (endogenous in striatum)) (UniProt Q6R891). Description: co-IP; spinophilin immunoprecipitated with 4 µg goat spinophilin antibody from mouse striatal TSFs (WT or T286A-KI; PND21 or adult); immunoblot.
The target in assay [4] is GSTSpC1 (GST-spinophilin residues 665–817), WT (UniProt O35274). Description: pull-down; GST constructs (250 nM) incubated with purified CaMKII, His-spinophilin or F-actin in 50 mM Tris-HCl pH 7.5, 200 mM NaCl, 0.5% Triton X-100 for 60 min; isolated on glutathione agarose; immunoblot; both purified.
The target is the same in assay [5]. Description: pull-down; as the GST pull-down of purified proteins, with increasing concentrations of a second purified protein (F-actin, CaMKII or His-spinophilin, up to 10-fold molar excess) as competitor; CaMKIIα 250 nM in Fig. 1F; glutathione agarose; immunoblot; both purified.
A further assay deals with GSTSpC1 L709P (UniProt O35274). Description: pull-down; GST constructs (10 µg) incubated with 350–500 µl of mouse striatal (Fig. 9A: whole forebrain) Triton-soluble fraction, WT or T286A-KI, PND21 or adult; 50 mM Tris-HCl pH 7.5, 200 mM NaCl, 0.5% Triton X-100; glutathione agarose overnight; immunoblot; only the target purified.
A further assay has as its target GSTSpC1 L751P (UniProt O35274). Described as above.
In assay [6] the target is CaMKIIβ, endogenous in mouse brain Triton-soluble fraction (mouse (endogenous in striatum)) (UniProt P28652). Description: co-IP; CaMKII immunoprecipitated with 3.75 µg of the mouse CaMKIIβ antibody from striatal TSFs of PND21, adult or aged mice; immunoblot.
The target of assay [7] is GSTSpN1 (GST-spinophilin residues 1–154) (UniProt O35274). The experiment in a line: pull-down; GST constructs (10 µg) incubated with 350–500 µl of mouse striatal (Fig. 9A: whole forebrain) Triton-soluble fraction, WT or T286A-KI, PND21 or adult; 50 mM Tris-HCl pH 7.5, 200 mM NaCl, 0.5% Triton X-100; glutathione agarose overnight; immunoblot; only the target purified.
In assay [8] the target is GSTSpC (GST-spinophilin residues 446–817) (UniProt O35274). The description is as above.

Results are given in words; binding and its absence hold for the method and conditions named. For part of these data: Binding seen in cells or lysates may run through a third protein. Some results given as binding are weak or reduced against the parent protein; the word gives no strength.

Turning to “CaMKIIβ, endogenous in mouse brain Triton-soluble fraction (from UniProt P28652 1-542) (enzyme)”, the binding entry in assay [1] is “binds”.

Turning to “densin, endogenous in mouse striatal TSF (from UniProt Q80TE7 1-1490)”, the binding result (in assay [2]; with GSTSpC1 L688P; with GSTSpC1 L797P) was “binds” throughout.

For “myosin Va, endogenous in mouse striatal TSF (from UniProt Q99104 1-1853)”, in assay [3], the binding entry is given as “binds”.

As to “purified, full-length, WT, His-tagged spinophilin (from UniProt O35274 1-817)”, the binding result in assay [4] and in [5] was “binds” in each case.

As to “spinophilin, endogenous in mouse striatal TSF (from UniProt Q6R891 1-817)”, the binding entry with GSTSpC1 L688P, with GSTSpC1 L709P, with GSTSpC1 L751P and with GSTSpC1 L797P was “binds” each time.

B1: α-internexin, endogenous in mouse striatal TSF (protein, UniProt P46660 1-501)
chain: MSFGSEHYLCSASSYRKVFGDSSRLSARLSGPGGSGSFRSQSLSRSNVASTAACSSASSLGLGLAYRRLPASDGLDLSQAAARTNEYKIIRTNEKEQLQGLNDRFAVFIEKVHQLETQNRALEAELAALRQRHAEPSRVGELFQRELRELRAQLEEASSARAQALLERDGLAEEVQRLRARCEEESRGREGAERALKAQQRDVDGATLARLDLEKKVESLLDELAFVRQVHDEEVAELLATLQASSQAAAEVDVAVAKPDLTSALREIRAQYESLAAKNLQSAEEWYKSKFANLNEQAARSTEAIRASREEIHEYRRQLQARTIEIEGLRGANESLERQILELEERHSAEVAGYQDSIGQLESDLRNTKSEMARHLREYQDLLNVKMALDIEIAAYRKLLEGEETRFSTGGLSISGLNPLPNPSYLLPPRILSSTASKVSSAGLSLKKEEEEEEEEASKEVSKKTSKVGEGFEETLGEAVISTKKTGKSATEESTSSSQKM
In the case of B1, the binding entry in assay [6], in assay [3] and in assay [7] was “binds” throughout.

B2: doublecortin, endogenous in mouse striatal TSF (protein, UniProt O88809 1-366)
chain: MELDFGHFDERDKASRNMRGSRMNGLPSPTHSAHCSFYRTRTLQALSNEKKAKKVRFYRNGDRYFKGIVYAVSSDRFRSFDALLADLTRSLSDNINLPQGVRYIYTIDGSRKIGSMDELEEGESYVCSSDNFFKKVEYTKNVNPNWSVNVKTSANMKAPQSLASSNSAQARENKDFVRPKLVTIIRSGVKPRKAVRVLLNKKTAHSFEQVLTDITEAIKLETGVVKKLYTLDGKQVTCLHDFFGDDDVFIACGPEKFRYAQDDFSLDENECRVMKGNPSAAAGPKASPTPQKTSAKSPGPMRRSKSPADSGNDQDANGTSSSQLSTPKSKQSPISTPTSPGSLRKHKVDLYLPLSLDDSDSLGDSM
With B2, the binding entry in assay [8] is listed as “binds”.
